PubChem BioAssay AID504804 | Drosophila RNAi Screening Center, 2011
Screen: 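Fly genes whose loss lessens doxorubicin-driven cell death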 (primary screen). System: Drosophila Kc cells. Knock-down reagent: long dsRNA against Drosophila genes, 0.5 µg dsRNA per well. Duration: 96 h (48 h knock-down, then 48 h drug). Challenge: doxorubicin 5 µg/ml for 48 h, added 48 h after dsRNA. Measured: 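Viability measured as cellular ATP by luminescence after 48 h knock-down then 48 h doxorubicin at 5 µg/ml; unnormalised plate counts for each replicate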. Direction: raw ATP luminescence: higher = more viable cells, protection from doxorubicin. Active means: 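z-score of 2 or more over plate mean in both duplicates, retained only when retests and separate dsRNAs confirm the protection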.
The deposit covers about 19,000 reagents; shown is a random part of those with a known target gene and a result. In the full data, 47 (0.25%) were called active. 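Signals are raw, not normalised; exact z-scores behind calls not deposited; actives needed confirmation, so some wells reaching 2 SD are inactive.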 Names joined by + are all predicted targets of the reagent.

| Gene | amplicon | raw ATP luminescence, replicate 1 | raw ATP luminescence, replicate 2 | call |
| --- | --- | --- | --- | --- |
| Or43b (Odorant receptor 43b) | DRSC07486 | 34787 | 71530 | inactive |
| CG5783 | DRSC02894 | 63590 | 64800 | inactive |
| CG33090 | DRSC01908 | 81570 | 73913 | inactive |
| PXo (P[[i]]-sensitive XPR1 orthologue) | DRSC09734 | 38677 | 35843 | inactive |
| NijB (Ninjurin B) | DRSC09850 | 1.67e5 | 2.06e5 | inactive |
| Ugalt (UDP-galactose transporter) | DRSC18467 | 39420 | 48000 | inactive |
| Pak3 | DRSC15017 | 39220 | 43023 | inactive |
| Or7a (Odorant receptor 7a) | DRSC18691 | 31010 | 45090 | inactive |
| Hmg-2 (High mobility group protein 2) | DRSC04554 | 62403 | 53500 | inactive |
| CG11029 | DRSC02119 | 37313 | 35720 | inactive |
| Cog2 (Component of oligomeric golgi complex 2) | DRSC16987 | 91430 | 77990 | inactive |
| Srg2 + CG42826 | DRSC10681 | 41073 | 36480 | inactive |
| Srg2 + CG42826 | DRSC10682 | 69370 | 56280 | inactive |
| CG13544 | DRSC04186 | 48600 | 53563 | inactive |
| CG5731 | DRSC02883 | 42193 | 71610 | inactive |
| Fas1 (Fasciclin 1) | DRSC16669 | 72530 | 49120 | inactive |
| CG12811 | DRSC14549 | 48550 | 63067 | inactive |
| CG8773 | DRSC16444 | 64487 | 37087 | inactive |
| PolI (DNA polymerase iota) | DRSC16267 | 63023 | 65307 | inactive |
| CG6937 | DRSC16140 | 63920 | 55990 | inactive |
| CG12910 | DRSC06225 | 48007 | 53357 | inactive |
| CG17917 | DRSC12570 | 54960 | 48450 | inactive |
| Septin2 (Septin 2) | DRSC16855 | 51550 | 54127 | inactive |
| AstC-R2 (Allatostatin C receptor 2) | DRSC10051 | 45370 | 36850 | inactive |
| tilB (touch insensitive larva B) | DRSC20634 | 2.75e5 | 2.95e5 | inactive |
| CG32073 | DRSC09087 | 2.05e5 | 1.37e5 | inactive |
| CG32073 | DRSC09894 | 85700 | 66013 | inactive |
| bs (blistered) | DRSC04676 | 36290 | 69267 | inactive |
| CG5504 | DRSC04701 | 78417 | 66347 | inactive |
| PLCXD | DRSC02427 | 87300 | 68147 | inactive |
| Tsen2 (tRNA splicing endonuclease subunit 2) | DRSC01557 | 2.19e5 | 2.56e5 | inactive |
| LeuRS (Leucyl-tRNA synthetase) | DRSC00581 | 22090 | 25870 | inactive |
| DCAF12 (DDB1 and CUL4 associated factor 12) | DRSC15475 | 74887 | 43507 | inactive |
| Cont (Contactin) | DRSC12149 | 13897 | 14477 | inactive |
| CG14626 | DRSC18631 | 56980 | 56540 | inactive |
| CG13117 | DRSC02215 | 36710 | 68347 | inactive |
| CG17734 | DRSC15256 | 53827 | 40627 | inactive |
| PIG-L (Phosphatidylinositol glycan anchor biosynthesis class L) | DRSC15577 | 40000 | 37080 | inactive |
| lky (leaky) | DRSC20682 | 3.19e5 | 3.45e5 | inactive |
| Cda4 (Chitin deacetylase-like 4) | DRSC20623 | 3.76e5 | 3.38e5 | inactive |
| Cda4 (Chitin deacetylase-like 4) | DRSC20641 | 3.14e5 | 3.42e5 | inactive |
| Cda4 (Chitin deacetylase-like 4) | DRSC20642 | 3.59e5 | 3.44e5 | inactive |
| CG43386 | DRSC17980 | 3.11e5 | 3.02e5 | inactive |
| Alp10 (Alkaline phosphatase 10) | DRSC09749 | 69740 | 71997 | inactive |
| CG14247 | DRSC14742 | 59150 | 64780 | inactive |
| Sec10 (Secretory 10) | DRSC17053 | 39787 | 46380 | inactive |
| CG30414 | DRSC04372 | 71947 | 61480 | inactive |
| CG15425 | DRSC00440 | 32527 | 23097 | inactive |
| CG9550 | DRSC03262 | 21233 | 26077 | inactive |
| CG42788 | DRSC15330 | 65700 | 90210 | inactive |
| CG42788 | DRSC16139 | 54890 | 63010 | inactive |
| CG42788 | DRSC16152 | 59010 | 68350 | inactive |
| CG17028 | DRSC10239 | 98333 | 73310 | inactive |
| CG12301 | DRSC09875 | 23247 | 23453 | inactive |
| Nep2 (Neprilysin 2) | DRSC12126 | 17580 | 20113 | inactive |
| CG11113 | DRSC06039 | 46790 | 76423 | inactive |
| CG10116 | DRSC09700 | 25407 | 27653 | inactive |
| VhaM9.7-c (Vacuolar H[+] ATPase M9.7 subunit c) | DRSC08204 | 41030 | 37783 | inactive |
| DIP-zeta (Dpr-interacting protein zeta) | DRSC02203 | 49770 | 85077 | inactive |
| DIP-zeta (Dpr-interacting protein zeta) | DRSC02204 | 44053 | 87060 | inactive |
| DIP-zeta (Dpr-interacting protein zeta) | DRSC02205 | 52950 | 73540 | inactive |
| CG31419 | DRSC15771 | 77720 | 72700 | inactive |
| CG6000 | DRSC15938 | 65810 | 76350 | inactive |
| CG31643 | DRSC00906 | 2.83e5 | 2.71e5 | inactive |
| CG13724 | DRSC10053 | 41013 | 33213 | inactive |
| MED10 (Mediator complex subunit 10) | DRSC10474 | 37857 | 40687 | inactive |
| Nmnat (Nicotinamide mononucleotide adenylyltransferase) | DRSC14644 | 50790 | 50450 | inactive |
| CG14079 | DRSC10083 | 51867 | 61100 | inactive |
| CG5539 | DRSC04510 | 38347 | 45157 | inactive |
| Argl + CG9515 | DRSC03243 | 86377 | 57390 | inactive |
| Argl + CG9515 | DRSC03245 | 42260 | 65010 | inactive |
| CG18508 | DRSC18155 | 49300 | 56730 | inactive |
| Amun | DRSC19847 | 3.21e5 | 2.96e5 | inactive |
| Ppn (Papilin) | DRSC15328 | 57030 | 44950 | inactive |
| CG14088 | DRSC10092 | 1.05e5 | 65673 | inactive |
| l(2)k09913 (lethal (2) k09913) | DRSC04699 | 65220 | 57743 | inactive |
| ttv (tout-velu) | DRSC07709 | 49713 | 55083 | inactive |
| CG14275 | DRSC02379 | 35800 | 66450 | inactive |
| CG11737 | DRSC14364 | 62413 | 50877 | inactive |
| CG34047 (retired record) | DRSC07857 | 1.63e5 | 1.67e5 | inactive |
| CG32284 | DRSC08025 | 1.43e5 | 1.55e5 | inactive |
| CG18231 | DRSC10307 | 76483 | 53117 | inactive |
| CG6901 | DRSC16129 | 1.06e5 | 84130 | inactive |
| Uqcc1 + CG9948 | DRSC09690 | 58373 | 74220 | inactive |
| CG15196 | DRSC19643 | 2.88e5 | 2.85e5 | inactive |
| CG15283 | DRSC01980 | 73013 | 80397 | inactive |
| H2.0 (Homeodomain protein 2.0) | DRSC03340 | 25527 | 34043 | inactive |
| CG15530 | DRSC15067 | 36270 | 41370 | inactive |
| CG33978 | DRSC17106 | 2.13e5 | 2.06e5 | inactive |
| SPoCk (Secretory Pathway Calcium atpase) | DRSC11675 | 57243 | 64680 | inactive |
| SPoCk (Secretory Pathway Calcium atpase) | DRSC11706 | 63627 | 66357 | inactive |
| SPoCk (Secretory Pathway Calcium atpase) | DRSC11844 | 70807 | 59907 | inactive |
| SPoCk (Secretory Pathway Calcium atpase) | DRSC11845 | 60543 | 53437 | inactive |
| CG16812 | DRSC02519 | 99677 | 69593 | inactive |
| rump (rumpelstiltskin) | DRSC16480 | 67753 | 24983 | inactive |
| CG4367 | DRSC15568 | 42420 | 40010 | inactive |
| Obp44a (Odorant-binding protein 44a) | DRSC06838 | 55653 | 77963 | inactive |
| nur (nemuri) | DRSC01342 | 2.10e5 | 2.10e5 | inactive |
| dpy (dumpy) | DRSC00233 | 2.74e5 | 2.71e5 | inactive |
| dpy (dumpy) | DRSC00234 | 2.80e5 | 2.50e5 | inactive |
| dpy (dumpy) | DRSC00472 | 43920 | 26697 | inactive |
| Rab2 | DRSC05017 | 72237 | 57097 | inactive |
| CG17163 | DRSC20901 | 3.36e5 | 3.17e5 | inactive |
| CG34125 | DRSC00850 | 2.65e5 | 2.03e5 | inactive |
| CG8478 | DRSC16427 | 61127 | 52393 | inactive |
| knrl (knirps-like) | DRSC11892 | 29870 | 29490 | inactive |
| zip (zipper) | DRSC04725 | 47913 | 53050 | inactive |
